Our source for the log2 fold change values is the supplement of paper PMC10849652.

Chains of the proteins cited; added tags and fusions are not shown. Lines headed by an entry give the natural chain unless they say otherwise; changes in a name come on top.
UniProt Q9NPA0: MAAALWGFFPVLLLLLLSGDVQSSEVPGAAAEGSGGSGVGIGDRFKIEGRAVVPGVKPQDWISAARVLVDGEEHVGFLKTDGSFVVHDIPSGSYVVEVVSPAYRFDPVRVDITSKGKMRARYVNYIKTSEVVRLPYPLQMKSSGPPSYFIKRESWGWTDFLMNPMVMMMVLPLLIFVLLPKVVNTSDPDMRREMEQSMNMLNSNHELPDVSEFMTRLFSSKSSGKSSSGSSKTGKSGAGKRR
UniProt Q14152, whole entry, looked up: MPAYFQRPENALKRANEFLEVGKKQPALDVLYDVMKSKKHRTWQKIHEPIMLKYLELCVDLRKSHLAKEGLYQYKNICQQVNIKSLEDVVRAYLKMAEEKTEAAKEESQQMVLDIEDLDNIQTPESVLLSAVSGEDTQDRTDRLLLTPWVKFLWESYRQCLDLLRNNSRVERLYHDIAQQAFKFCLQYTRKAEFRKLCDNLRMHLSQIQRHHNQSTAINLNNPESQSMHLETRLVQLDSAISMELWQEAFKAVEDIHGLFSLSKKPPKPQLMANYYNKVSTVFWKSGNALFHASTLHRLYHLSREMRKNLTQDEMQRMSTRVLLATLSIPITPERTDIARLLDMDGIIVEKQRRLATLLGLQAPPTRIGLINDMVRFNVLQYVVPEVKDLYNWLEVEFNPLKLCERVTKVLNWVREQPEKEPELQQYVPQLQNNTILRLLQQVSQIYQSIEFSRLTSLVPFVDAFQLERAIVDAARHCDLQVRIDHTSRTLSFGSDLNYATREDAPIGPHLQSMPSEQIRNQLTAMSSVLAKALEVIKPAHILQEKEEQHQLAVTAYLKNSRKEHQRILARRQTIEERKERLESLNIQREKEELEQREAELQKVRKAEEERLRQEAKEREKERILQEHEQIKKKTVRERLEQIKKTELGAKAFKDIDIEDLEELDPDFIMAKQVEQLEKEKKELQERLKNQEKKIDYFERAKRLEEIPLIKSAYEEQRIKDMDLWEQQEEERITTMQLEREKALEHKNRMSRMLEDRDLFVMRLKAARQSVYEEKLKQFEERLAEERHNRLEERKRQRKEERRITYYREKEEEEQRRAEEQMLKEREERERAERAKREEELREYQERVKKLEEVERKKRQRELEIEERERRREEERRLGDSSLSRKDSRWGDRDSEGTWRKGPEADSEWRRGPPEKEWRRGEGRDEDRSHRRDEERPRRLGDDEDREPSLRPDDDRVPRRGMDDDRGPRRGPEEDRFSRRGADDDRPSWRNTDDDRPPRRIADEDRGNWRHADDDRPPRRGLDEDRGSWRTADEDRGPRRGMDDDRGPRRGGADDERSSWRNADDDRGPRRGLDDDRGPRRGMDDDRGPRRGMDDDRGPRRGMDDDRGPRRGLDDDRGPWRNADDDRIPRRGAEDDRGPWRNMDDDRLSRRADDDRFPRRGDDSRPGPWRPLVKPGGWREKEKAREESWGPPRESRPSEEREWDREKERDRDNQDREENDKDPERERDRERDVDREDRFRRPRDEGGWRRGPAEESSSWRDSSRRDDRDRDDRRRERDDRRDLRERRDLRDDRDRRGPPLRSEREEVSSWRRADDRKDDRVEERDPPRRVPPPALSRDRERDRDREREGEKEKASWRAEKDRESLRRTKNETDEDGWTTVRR
UniProt Q9NR50: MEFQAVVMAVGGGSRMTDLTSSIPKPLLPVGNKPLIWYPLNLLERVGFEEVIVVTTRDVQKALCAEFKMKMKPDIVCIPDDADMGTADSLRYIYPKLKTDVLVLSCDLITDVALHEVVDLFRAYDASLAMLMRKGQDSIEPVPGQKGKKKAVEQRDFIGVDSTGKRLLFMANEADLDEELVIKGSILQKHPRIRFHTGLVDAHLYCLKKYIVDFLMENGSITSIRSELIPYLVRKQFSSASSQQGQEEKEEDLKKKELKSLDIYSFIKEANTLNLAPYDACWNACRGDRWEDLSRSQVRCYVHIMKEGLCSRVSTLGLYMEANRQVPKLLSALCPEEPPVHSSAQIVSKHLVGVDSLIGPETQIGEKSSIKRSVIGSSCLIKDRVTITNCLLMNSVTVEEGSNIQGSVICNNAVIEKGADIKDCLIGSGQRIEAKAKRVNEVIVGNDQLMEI
UniProt P13929, whole entry, looked up: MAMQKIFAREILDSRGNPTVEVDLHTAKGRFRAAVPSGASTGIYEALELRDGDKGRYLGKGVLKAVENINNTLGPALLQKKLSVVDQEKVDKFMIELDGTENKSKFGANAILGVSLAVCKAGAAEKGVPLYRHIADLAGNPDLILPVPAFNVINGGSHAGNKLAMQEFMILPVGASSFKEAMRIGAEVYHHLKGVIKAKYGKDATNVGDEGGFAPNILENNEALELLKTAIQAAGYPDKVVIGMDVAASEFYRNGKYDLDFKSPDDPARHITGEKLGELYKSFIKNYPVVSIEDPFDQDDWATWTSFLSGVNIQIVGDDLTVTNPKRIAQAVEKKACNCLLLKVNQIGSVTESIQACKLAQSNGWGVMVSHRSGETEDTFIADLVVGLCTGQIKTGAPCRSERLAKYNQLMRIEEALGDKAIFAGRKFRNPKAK
UniProt P11171, whole entry, looked up: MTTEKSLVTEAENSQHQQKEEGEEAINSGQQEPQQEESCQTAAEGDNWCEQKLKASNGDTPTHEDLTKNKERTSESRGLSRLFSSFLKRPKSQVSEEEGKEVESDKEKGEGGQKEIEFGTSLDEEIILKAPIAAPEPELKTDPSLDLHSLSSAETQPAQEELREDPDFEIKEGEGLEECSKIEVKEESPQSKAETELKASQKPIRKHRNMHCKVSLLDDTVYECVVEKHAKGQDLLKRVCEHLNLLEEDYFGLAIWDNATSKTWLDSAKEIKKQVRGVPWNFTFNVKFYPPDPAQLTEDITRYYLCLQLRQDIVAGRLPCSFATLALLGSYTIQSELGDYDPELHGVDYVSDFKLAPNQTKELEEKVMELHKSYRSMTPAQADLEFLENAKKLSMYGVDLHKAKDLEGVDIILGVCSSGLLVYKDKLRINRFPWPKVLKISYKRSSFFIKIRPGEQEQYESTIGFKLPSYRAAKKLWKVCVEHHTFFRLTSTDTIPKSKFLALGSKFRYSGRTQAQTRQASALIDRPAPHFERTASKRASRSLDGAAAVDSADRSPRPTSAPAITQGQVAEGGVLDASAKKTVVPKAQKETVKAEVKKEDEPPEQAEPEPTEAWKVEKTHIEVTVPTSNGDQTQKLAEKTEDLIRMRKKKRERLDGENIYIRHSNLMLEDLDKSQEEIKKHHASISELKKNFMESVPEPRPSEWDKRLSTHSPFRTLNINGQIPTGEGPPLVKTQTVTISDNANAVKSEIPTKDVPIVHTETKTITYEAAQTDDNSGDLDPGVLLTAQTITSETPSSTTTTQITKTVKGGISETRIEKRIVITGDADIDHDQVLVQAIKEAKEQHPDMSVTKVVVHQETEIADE
UniProt P49770: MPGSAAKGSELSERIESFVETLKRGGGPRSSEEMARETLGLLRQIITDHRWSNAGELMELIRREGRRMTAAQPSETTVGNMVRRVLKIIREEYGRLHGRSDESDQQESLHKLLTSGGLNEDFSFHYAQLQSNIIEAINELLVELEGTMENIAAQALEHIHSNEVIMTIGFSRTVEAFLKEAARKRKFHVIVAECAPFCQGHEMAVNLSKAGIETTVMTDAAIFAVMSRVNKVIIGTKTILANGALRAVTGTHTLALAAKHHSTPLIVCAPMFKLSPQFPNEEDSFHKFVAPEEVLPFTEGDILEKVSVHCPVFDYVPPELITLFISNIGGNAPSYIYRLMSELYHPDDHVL
UniProt O43768: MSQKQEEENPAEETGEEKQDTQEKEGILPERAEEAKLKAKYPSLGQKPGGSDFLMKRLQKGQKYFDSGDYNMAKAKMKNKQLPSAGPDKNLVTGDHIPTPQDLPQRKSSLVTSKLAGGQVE
UniProt Q9BV81: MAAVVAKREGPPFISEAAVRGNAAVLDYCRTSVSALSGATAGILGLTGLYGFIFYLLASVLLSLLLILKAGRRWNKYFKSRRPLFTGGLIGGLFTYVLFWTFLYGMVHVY
UniProt O15371, whole entry, looked up: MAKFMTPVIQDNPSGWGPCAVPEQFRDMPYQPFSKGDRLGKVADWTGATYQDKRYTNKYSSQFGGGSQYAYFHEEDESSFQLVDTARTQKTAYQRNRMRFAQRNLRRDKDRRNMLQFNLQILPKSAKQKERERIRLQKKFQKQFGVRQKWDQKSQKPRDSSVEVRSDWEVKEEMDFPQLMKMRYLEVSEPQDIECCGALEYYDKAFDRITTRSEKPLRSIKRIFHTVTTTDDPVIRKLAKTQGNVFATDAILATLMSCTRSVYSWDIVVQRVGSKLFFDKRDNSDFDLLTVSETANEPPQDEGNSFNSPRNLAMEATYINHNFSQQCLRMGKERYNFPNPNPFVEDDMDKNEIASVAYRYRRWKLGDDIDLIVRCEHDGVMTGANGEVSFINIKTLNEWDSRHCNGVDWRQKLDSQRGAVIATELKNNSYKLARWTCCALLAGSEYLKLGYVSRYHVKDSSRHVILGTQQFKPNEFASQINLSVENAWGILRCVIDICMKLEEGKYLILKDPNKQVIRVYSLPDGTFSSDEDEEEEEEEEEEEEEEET
UniProt Q14249: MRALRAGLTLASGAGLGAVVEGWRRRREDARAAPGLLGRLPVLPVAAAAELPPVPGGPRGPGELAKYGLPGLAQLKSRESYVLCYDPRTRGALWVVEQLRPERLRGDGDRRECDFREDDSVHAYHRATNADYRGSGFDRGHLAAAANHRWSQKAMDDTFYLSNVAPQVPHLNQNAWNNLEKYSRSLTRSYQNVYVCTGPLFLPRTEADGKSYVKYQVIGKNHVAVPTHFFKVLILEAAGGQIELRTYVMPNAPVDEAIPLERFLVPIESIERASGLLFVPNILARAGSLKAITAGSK
UniProt Q0PNE2: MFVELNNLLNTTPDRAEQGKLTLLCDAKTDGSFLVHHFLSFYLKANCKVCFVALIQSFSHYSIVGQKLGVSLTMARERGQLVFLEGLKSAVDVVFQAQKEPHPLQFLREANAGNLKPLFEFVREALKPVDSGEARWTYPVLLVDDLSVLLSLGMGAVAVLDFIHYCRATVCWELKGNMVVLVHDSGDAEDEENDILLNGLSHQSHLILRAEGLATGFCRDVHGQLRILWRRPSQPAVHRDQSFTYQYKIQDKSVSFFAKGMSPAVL
UniProt P09104, whole entry, looked up: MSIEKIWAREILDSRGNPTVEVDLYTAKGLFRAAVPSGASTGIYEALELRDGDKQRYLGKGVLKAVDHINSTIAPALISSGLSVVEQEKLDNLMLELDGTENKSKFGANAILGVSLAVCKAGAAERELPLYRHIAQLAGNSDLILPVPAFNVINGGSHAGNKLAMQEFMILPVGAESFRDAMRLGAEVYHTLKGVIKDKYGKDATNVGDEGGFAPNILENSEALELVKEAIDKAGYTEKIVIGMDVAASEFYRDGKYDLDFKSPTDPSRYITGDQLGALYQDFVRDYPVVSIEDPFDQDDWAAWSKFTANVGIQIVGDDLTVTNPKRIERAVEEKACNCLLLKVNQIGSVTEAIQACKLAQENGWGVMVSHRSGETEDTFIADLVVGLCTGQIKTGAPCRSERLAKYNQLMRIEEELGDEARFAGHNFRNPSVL
UniProt P41214: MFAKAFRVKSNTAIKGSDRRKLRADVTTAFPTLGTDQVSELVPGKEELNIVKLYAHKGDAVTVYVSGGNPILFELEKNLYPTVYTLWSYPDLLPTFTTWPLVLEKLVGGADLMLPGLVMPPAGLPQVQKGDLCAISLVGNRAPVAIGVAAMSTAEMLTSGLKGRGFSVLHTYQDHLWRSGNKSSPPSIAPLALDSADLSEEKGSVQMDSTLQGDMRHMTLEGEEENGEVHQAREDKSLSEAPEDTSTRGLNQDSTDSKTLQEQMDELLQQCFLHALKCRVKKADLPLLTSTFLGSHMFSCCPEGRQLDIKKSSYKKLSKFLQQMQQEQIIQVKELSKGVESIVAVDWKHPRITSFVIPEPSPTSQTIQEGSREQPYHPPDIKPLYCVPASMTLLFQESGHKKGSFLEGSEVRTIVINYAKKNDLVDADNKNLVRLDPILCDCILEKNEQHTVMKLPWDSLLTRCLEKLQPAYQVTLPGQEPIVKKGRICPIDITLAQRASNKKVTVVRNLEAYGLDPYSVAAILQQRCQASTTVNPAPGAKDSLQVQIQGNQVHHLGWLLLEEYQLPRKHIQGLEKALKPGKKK
UniProt P54852: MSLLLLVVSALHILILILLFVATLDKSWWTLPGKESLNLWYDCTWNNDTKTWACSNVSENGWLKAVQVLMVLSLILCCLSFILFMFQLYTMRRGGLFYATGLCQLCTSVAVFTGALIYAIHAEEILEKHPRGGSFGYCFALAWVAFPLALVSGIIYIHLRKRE
UniProt P98172: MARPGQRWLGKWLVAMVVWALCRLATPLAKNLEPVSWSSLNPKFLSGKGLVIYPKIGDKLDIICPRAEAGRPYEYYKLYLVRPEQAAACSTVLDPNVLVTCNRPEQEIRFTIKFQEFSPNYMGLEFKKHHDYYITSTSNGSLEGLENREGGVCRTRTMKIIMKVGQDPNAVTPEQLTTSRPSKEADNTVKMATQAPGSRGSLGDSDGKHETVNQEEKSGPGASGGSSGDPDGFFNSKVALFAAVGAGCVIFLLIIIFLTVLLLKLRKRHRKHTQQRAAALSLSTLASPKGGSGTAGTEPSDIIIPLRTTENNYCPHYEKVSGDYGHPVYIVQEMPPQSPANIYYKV

Some of the results follow.

Compound in the first experiment: CC(=O)c1cnc2ccc(-c3cc(Cl)c(O)c(Cl)c3)nc2c1N[C@H]1CC[C@H](CN(C)C)CC1
The experiment in a line: log2 fold change, soluble protein after heating vs DMSO (PISA); higher = thermal stabilisation; K562 cells, 10 uM, 30 min; active = over 0.2 and 3.5 SD of the protein, either way, in both replicates (recomputed). The essentials: (§1)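 Soluble protein was defined as the supernatant after 21,000xg for 90 min. It came from K562 cells at 2×10^6 cells/mL given 10 μM compound for 30 min, heated in aliquots for 3 min across 48°C-58°C, pooled, and extracted in PBS with 0.5% NP-40 at 4°C, and was quantified by TMTpro 16plex LC-MS/MS with equalised channel sums. Thermal stability against control samples, from duplicates, is reported as log2 fold change.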
Turning to EMC7 (UniProt Q9NPA0), the log2 fold change was inactive: -0.071.
The same measure, in the same setting: in the case of EIF2S1 (UniProt P05198) it was inactive: 0.008; in that of EIF3A (UniProt Q14152), inactive: 0.027; in that of EIF2B3 (UniProt Q9NR50), inactive: -0.015.
Consider ENO3 (UniProt P13929), for which the log2 fold change was inactive: 0.04.
Still for that read-out and setting: the same measure for EIF3L (UniProt Q9Y262): inactive: -0.022; for EPB41 (UniProt P11171): inactive: -0.099; for EIF2B2 (UniProt P49770): inactive: -0.004.
Turning to ENSA isoform 3 (UniProt O43768), the log2 fold change was inactive: 0.014.
On the same count and under the same terms, in the case of ELP2 isoform 6 (UniProt Q6IA86) it was inactive: -0.015; in that of EIF1AX (UniProt P47813), inactive: 0.006; in that of EMC6 (UniProt Q9BV81), inactive: 0.074.
Still for that read-out and setting: in the case of EIF4B (UniProt P23588) it was inactive: -0.006; in that of EIF3H (UniProt O15372), inactive: 0.02; in that of EEFSEC (UniProt P57772), inactive: 0.02.
Take ELP4 (UniProt Q96EB1): the log2 fold change was inactive: 0.044.
On the same count and under the same terms, in the case of ELMOD2 (UniProt Q8IZ81) it was inactive: 0.016.
On to EML3 isoform 2 (UniProt Q32P44), for which the log2 fold change was inactive: 0.
As for ELOB (UniProt Q15370), the log2 fold change was inactive: 0.
On the same count and under the same terms, the same measure for EEF2 (UniProt P13639): inactive: -0.009.
Still for that read-out and setting: the same measure for EI24 (UniProt O14681): inactive: 0.065; for EHMT2 (UniProt Q96KQ7): inactive: -0.015; for EIF1 (UniProt P41567): inactive: 0.
As for EIF3D (UniProt O15371), the log2 fold change was inactive: -0.024.
On to ENDOG (UniProt Q14249), for which the log2 fold change was inactive: -0.029.
Take EIF3G (UniProt O75821): the log2 fold change is inactive: 0.017.
As for ELP6 (UniProt Q0PNE2), the log2 fold change was inactive: -0.035.
On to ENO2 (UniProt P09104), for which the log2 fold change is inactive: 0.011.
Still for that read-out and setting: the same measure for EIF3E (UniProt P60228): inactive: -0.089.
With EHHADH (UniProt Q08426), the log2 fold change was inactive: -0.037.
Same read-out and setting: in the case of EP300 (UniProt Q09472) it was inactive: -0.062; in that of EIF2D (UniProt P41214), inactive: -0.108.
The same measure, in the same setting: the same measure for EMP3 (UniProt P54852): inactive: -0.087.
On to EFNB1 (UniProt P98172), for which the log2 fold change was inactive: 0.003.

Compound in a further experiment: CC(C)(C)Cn1c(N)nc2ccc(-c3[nH]c(C(C)(C)C)nc3-c3ccc(F)cc3)nc21 [ralimetinib]
Described as above. The essentials: as §1
EMC7 (UniProt Q9NPA0): the log2 fold change is inactive: -0.108.
For EIF2S1 (UniProt P05198), the log2 fold change is inactive: 0.031.
On to EIF3A (UniProt Q14152), for which the log2 fold change is inactive: 0.082.
EIF2B3 (UniProt Q9NR50): the log2 fold change was inactive: 0.053.
For the target ENO3 (UniProt P13929), the log2 fold change is inactive: 0.054.
In the case of EIF3L (UniProt Q9Y262), the log2 fold change was inactive: -0.03.
On the same count and under the same terms, the same measure for EPB41 (UniProt P11171): inactive: 0.004; for EIF2B2 (UniProt P49770): inactive: -0.002.
Same read-out and setting: in the case of ENSA isoform 3 (UniProt O43768) it was inactive: -0.072; in that of ELP2 isoform 6 (UniProt Q6IA86), inactive: -0.057; in that of EIF1AX (UniProt P47813), inactive: 0.034.
The same measure, in the same setting: the same measure for EMC6 (UniProt Q9BV81): inactive: -0.025; for EIF4B (UniProt P23588): inactive: 0.039.
As to EIF3H (UniProt O15372), the log2 fold change was inactive: 0.075.
Still for that read-out and setting: in the case of EEFSEC (UniProt P57772) it was inactive: 0.051.
Same read-out and setting: in the case of ELP4 (UniProt Q96EB1) it was inactive: -0.056; in that of ELMOD2 (UniProt Q8IZ81), inactive: -0.039.
Take EML3 isoform 2 (UniProt Q32P44): the log2 fold change is inactive: 0.34.
Still for that read-out and setting: in the case of ELOB (UniProt Q15370) it was inactive: -0.093; in that of EEF2 (UniProt P13639), inactive: -0.007; in that of EI24 (UniProt O14681), inactive: 0.056.
The same measure, in the same setting: the same measure for EHMT2 (UniProt Q96KQ7): inactive: 0.004.
The same measure, in the same setting: in the case of EIF1 (UniProt P41567) it was inactive: -0.064; in that of EIF3D (UniProt O15371), inactive: 0.135.
On to ENDOG (UniProt Q14249), for which the log2 fold change is inactive: 0.03.
Same read-out and setting: in the case of EIF3G (UniProt O75821) it was inactive: 0.044.
Turning to ELP6 (UniProt Q0PNE2), the log2 fold change is inactive: -0.057.
Same read-out and setting: in the case of ENO2 (UniProt P09104) it was inactive: 0; in that of EIF3E (UniProt P60228), inactive: 0.21.
On the same count and under the same terms, in the case of EHHADH (UniProt Q08426) it was inactive: -0.016.
As for EP300 (UniProt Q09472), the log2 fold change is inactive: -0.145.
The same measure, in the same setting: in the case of EIF2D (UniProt P41214) it was inactive: 0.111; in that of EMP3 (UniProt P54852), inactive: -0.119; in that of EFNB1 (UniProt P98172), inactive: 0.025.

Compound in the next experiment: CC(C)(O)CC(=O)NCCn1ccc2ncnc(Nc3ccc(Oc4cccc(C(F)(F)F)c4)c(Cl)c3)c21
The experiment is described as above. The essentials:
as §1
For EMC7 (UniProt Q9NPA0), the log2 fold change is inactive: -0.007.
Same read-out and setting: in the case of EIF2S1 (UniProt P05198) it was inactive: 0.03; in that of EIF3A (UniProt Q14152), inactive: -0.081.
As to EIF2B3 (UniProt Q9NR50), the log2 fold change was inactive: -0.004.
Still for that read-out and setting: in the case of ENO3 (UniProt P13929) it was inactive: -0.062; in that of EIF3L (UniProt Q9Y262), inactive: -0.036.
Same read-out and setting: in the case of EPB41 (UniProt P11171) it was inactive: -0.011; in that of EIF2B2 (UniProt P49770), inactive: -0.038; in that of ENSA isoform 3 (UniProt O43768), inactive: 0.013.
The same measure, in the same setting: the same measure for ELP2 isoform 6 (UniProt Q6IA86): inactive: -0.023; for EIF1AX (UniProt P47813): inactive: 0.023; for EMC6 (UniProt Q9BV81): inactive: -0.022.
Take EIF4B (UniProt P23588): the log2 fold change is inactive: 0.003.
Consider EIF3H (UniProt O15372), for which the log2 fold change is inactive: -0.072.
Same read-out and setting: in the case of EEFSEC (UniProt P57772) it was inactive: -0.019.
On the same count and under the same terms, in the case of ELP4 (UniProt Q96EB1) it was inactive: -0.04; in that of ELMOD2 (UniProt Q8IZ81), inactive: 0; in that of EML3 isoform 2 (UniProt Q32P44), inactive: 0.032.
As for ELOB (UniProt Q15370), the log2 fold change is inactive: -0.043.
Still for that read-out and setting: in the case of EEF2 (UniProt P13639) it was inactive: -0.012; in that of EI24 (UniProt O14681), inactive: -0.01; in that of EHMT2 (UniProt Q96KQ7), inactive: -0.064.
Same read-out and setting: the same measure for EIF1 (UniProt P41567): inactive: 0.059.
As for EIF3D (UniProt O15371), the log2 fold change is inactive: -0.034.
Take ENDOG (UniProt Q14249): the log2 fold change is inactive: -0.02.
Regarding EIF3G (UniProt O75821), the log2 fold change is inactive: -0.029.
On the same count and under the same terms, the same measure for ELP6 (UniProt Q0PNE2): inactive: -0.017; for ENO2 (UniProt P09104): inactive: 0.01.
Still for that read-out and setting: the same measure for EIF3E (UniProt P60228): inactive: -0.04.
On to EHHADH (UniProt Q08426), for which the log2 fold change was inactive: -0.04.
With EP300 (UniProt Q09472), the log2 fold change was inactive: -0.006.
As to EIF2D (UniProt P41214), the log2 fold change was inactive: -0.139.
On the same count and under the same terms, in the case of EMP3 (UniProt P54852) it was inactive: 0.034.
EFNB1 (UniProt P98172): the log2 fold change is inactive: -0.194.
